Values quoted from earlier work in US6653469B1, “Antibiotic purification method” (Murty Pharmaceuticals, Inc., priority 2002, dated 2003).
At least one compound was matched to its structure with a doubt left.

Tested on: highly responsive cell lines
Settings: read-out: concentration achieving growth inhibition of 50%

COC1=C2C[C@@H](C)C[C@H](OC)[C@H](O)[C@@H](C)/C=C(\C)[C@H](OC(N)=O)[C@@H](OC)/C=C\C=C(/C)C(=O)NC(=CC1=O)C2=O [geldanamycin]
IC50: 13 nM
